Publication PMC7719796, “Structural Insights on Tiny Peptide Nucleic Acid (PNA) Analogues of miRNA-34a: An in silico and Experimental Integrated Approach” (Frontiers in Chemistry, 2020)

Test system: Kelly neuroblastoma cells
Experiment: Confocal microscopy of cellular uptake / subcellular localization
Format: cell-based, Human
Conditions: 2.5 μM, no transfection agent, fixed cells
Procedure: The FITC-PNA2 and FITC-PNA3 cellular uptake was also assessed by confocal microscopy (Figure 9B). The membrane/nuclei optimal staining protocol and stain compatibility were screened on live and fixed cells in order to achieve the best image resolution. The coverslips were pre-treated with collagen prior to cells being seeded and incubated for 24 h with 2.5 μM solutions for each of PNAs. […] The cellular uptake of tiny FITC-PNA2 and FITC-PNA3 in the absence of any transfection agent was unexpectedly low if compared to longer sequences, as previously reported by our group (Piacenti et al., [2019]). The employment of endosome disrupting agents and dose/uptake correlation needs further exploration as well as conjugation to different peptide carriers (R8) or different delivery strategies (e.g., liposomes).
Eight well-coverslips were treated with 0.2 mM solution of collagen in DMEM, and incubated at 0–4°C overnight. The wells were washed with PBS before seeding. Kelly cells were plated at 10^4 cells/well density. After 48 h from seeding, the growth media was replaced with serum-free media and cells were treated with 200 μL of 2.5 μM solutions of FITC-PNA2 and FITC-PNA3 in Opti-MEM. Wells were gently agitated to provide an even treatment of the cells and incubated at 37°C for 6 h. After incubation, 100 μl of 40% FBS in RPMI were added to each well in the 8-well coverslip. […]

Substance	Subcellular localization of FITC fluorescence
FITC- Ahx -CK - tggcagtg—KKK- NH2 [FITC-PNA3, PNA1 with Cys-Lys at N-terminus and KKK at C-terminus, FITC-Ahx; reported in previous work, used for comparison]	localized in vesicular shapes in the cytosol
FITC- Ahx -K- tggcagtg—KKK-NH2 [FITC-PNA2, PNA1 with K at N-terminus and KKK at C-terminus, Ahx linker and FITC fluorescent tag]	localized in vesicular shapes in the cytosol
